Source: the supplement of paper PMC10338343
± gives the standard deviation. This is a selection; strong and weak results do not stand in their true shares. The uncertainty is large for many entries.

test system: EfPiwi piRISC loaded with piRNA #1 (26 nt); experiment: pre-steady-state target cleavage rate (min^-1); guide: piRNA #1 5'p-UGAGGUAGUAGGUUGUAUAGUAUCCA; MIWI and MILI are mouse PIWI proteins and EfPiwi is from a freshwater sponge; tags in brackets are library labels; higher = faster piRNA-guided slicing of the target; settings: auxiliary factor: 500 nM Ephydatia muelleri Gtsf1
Procedure, shortened: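 The pre-steady-state cleavage rate was calculated from a burst-and-steady-state fit. Data came from Cleave-'n-Seq, in which […] transcribed, DNA-blocked target RNA library was mixed with 1 nM active affinity-purified piRISC carrying one synthetic guide, with or without 500 nM GTSF1 partner protein, in HEPES–potassium acetate buffer at 33 °C for 0–8 or 0–960 min. Uncleaved targets were sequenced and normalised to depth and to weakly complementary targets, three trials were pooled, and k3 was capped at 0.0001 min^-1.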

Row | Sequence | pre-steady-state target cleavage rate
1 | GGAGACGAUUCUAUACAACCUACAACCUCA | 0.00277 ± 0.0012
2 | GGAGACCAUACUAACAACCUACUACCUCA | 0.00859 ± 0.0041
3 | GGAGACCUAACUAUACAACCUGCUACCUCA | 0.0127 ± 0.005
4 | GGAGACCUAACUAAAGAACCUACUACCUCA | 0.000231 ± 0.014
5 | GGAGUGGAUACUAUACAACCUACUACCUCU [g2:g26:cont:t1U] | 1.05 ± 0.27
6 | GGAGACCUAUGAAUACUACCUACAACCUCA | 0.000209 ± 0.022
7 | GGAGACCAUACUAUACAACCUACUACCUCG [g2:g23:cont:t1G] | 0.0177 ± 0.0074
8 | GGAGACGAUACUUUUCAACCUACUACCUCA | 0.00363 ± 0.0038
9 | GGAGACCUAACUUUACAACCUAGUACCUCA | 0.00417 ± 0.0038
10 | GGAGACCUUACUAUACAACCUACUACCUCCA | 0.00652 ± 0.0028
11 | GGAGACCAUGCUAUACAACCUACUACCUCA | 0.00746 ± 0.0043
12 | GGAGACGAAACUAUACAACCUACUUCCUCA | 0.00318 ± 0.0023
13 | GGAGACCUAUCUUUACAACCUACUACCUGA | 0.00263 ± 0.004
14 | GGAGACCAUACUAUACAACCAACUACCUCA | 0.00627 ± 0.0022
15 | GGAGACCUAUGAUUAGAACCUACUUCCUCA | 0.000169 ± 0.013
16 | GGAGACGAUACUAUACAACGUACUACCUCA | 0.00525 ± 0.0016
17 | GGAGACCUAACUAUACAACGUACUACCACA | 0.0055 ± 0.0049
18 | GGAGUGGAUACUAUACUUCCUACUACCUCA | 0.0195 ± 0.01
19 | GGAGACGAUUCUAUACAACCAACUACCUCA | 0.00258 ± 0.0018
20 | GGAGACCUAUCUAUACAUCCUUCUACCUCA | 0.00237 ± 0.0042
21 | GGAGACCUAUCUAUACCACCUACUACCUCA | 0.00113 ± 0.0027
22 | GGAGAUGAUACUAUACAACCUACUACCUCA | 0.193 ± 0.068
23 | GGAGUGGAUACUAUAACAACCUACUACCUCA | 0.0556 ± 0.021

An excerpt of these results, field by field:
GGAGACCAUGCUAUACAACCUACUACCUCA
  pre-steady-state target cleavage rate: 0.00746 ± 0.0043
GGAGACGAAACUAUACAACCUACUUCCUCA
  pre-steady-state target cleavage rate: 0.00318 ± 0.0023
